The list does not hold the whole screen: it is rich in T/C values a quarter to a half above the control, in often repeated tests (any T/C) and in doses without a T/C. Further doses and runs are listed elsewhere. T/C: endpoint of the treated group in % of that of the vehicle group. Some doses have a count of surviving animals in place of a T/C: the source files T/C as zero there, which appears to mark a toxic dose or a test without result, not a measured value. Some survivor counts are full or nearly so, which does not show that the dose was tolerated: survival well below the control is almost never listed, so the zero probably covers shortened survival too. Counts of survivors are from the toxicity check (mostly the fifth day) where no day follows; animals may have died later. Schedules are NCI's codes, read here as Q, the interval in days (D) or hours (H), X, the number of doses. Some entries hold several experiments; their values stand side by side, smallest first. Some schedule codes hold Z or #, which are not explained here. For survival time, this PubChem deposit counts one and a half times the control or more as active, and values a quarter to a half above the control carry no call in these data; other NCI protocols may use other cut-offs.

The source of these data is PubChem BioAssay AID248 (DTP/NCI, 2004).

This test relates to L1210 leukemia ip in BDF1 mice, survival T/C. The experiment in a line: NCI In Vivo Anticancer Drug Screen. Data for tumor model L1210 Leukemia (intraperitoneal) in B6D2F1 (BDF1) mice. As to conditions: T/C endpoint: mean survival time, higher T/C = longer survival.
Where [1] appears, read: dose: 400.0 mg/kg/injection, schedule: Q01DX009 (ip), vehicle: Klucel (hydroxypropylcellulose) (HPC).
[2] abbreviates: dose: 200.0 mg/kg/injection, schedule: Q04DX002 (ip), vehicle: Klucel (hydroxypropylcellulose) (HPC).
Where [3] appears, read: dose: 400.0 mg/kg/injection, schedule: Q04DX002 (ip), vehicle: Klucel (hydroxypropylcellulose) (HPC).
Setting [4] is: dose: 200.0 mg/kg/injection, schedule: Q01DX009 (ip), vehicle: Klucel (hydroxypropylcellulose) (HPC).
[5] abbreviates: dose: 400.0 mg/kg/injection, schedule: Q04DX003 (ip), vehicle: saline with Tween-80.
[6] abbreviates: dose: 300.0 mg/kg/injection, schedule: Q01DX001 (ip), vehicle: other.

Take `CC1(C)N=C(N)N=C(N)N1c1ccc(C(F)(F)F)cc1`: the survivor count is on record as 0 of 6 (dose: 200.0 mg/kg/injection, schedule: Q01DX001 (ip), vehicle: saline) and 0 of 6 (dose: 400.0 mg/kg/injection, schedule: Q01DX001 (ip), vehicle: saline). Regarding `O=Cc1cc(Cl)ccc1O`, the survivor count under setting [1] is recorded as 0 of 6. As for `O=C(O)c1ccccc1Cl.[Ni]`, the survivor count (dose: 100.0 mg/kg/injection, schedule: Q04DX002 (ip), vehicle: Klucel (hydroxypropylcellulose) (HPC)) is 0 of 3 and 3 of 3; the survivor count under setting [2] was 0 of 3; the survivor count under setting [3] was 0 of 3.

Take `NC(=O)COc1ccc2ccccc2c1Cl`: the survivor count under setting [3] was 3 of 3. As to `CCCCNC(=O)c1ccccc1-c1ccccc1C(=O)NCCCC`, the survivor count (dose: 400.0 mg/kg/injection, schedule: Q01DX001 (ip), vehicle: other) is 2 of 4. Turning to `C=CCNC(=O)N(CC)C(=NCC)c1ccc(NC(=O)c2ccc(C(=O)Nc3ccc(C(=NCC)N(CC)C(=O)NCC=C)cc3)cc2)cc1`, the T/C (dose: 7.75 mg/kg/injection, schedule: Q01DX015 (ip), vehicle: methylcellulose (MC)) is 132 % of control. Also, the survivor count reads like this: (dose: 15.5 mg/kg/injection, schedule: Q01DX015 (ip), vehicle: methylcellulose (MC)) 0 of 6; (dose: 31.0 mg/kg/injection, schedule: Q01DX015 (ip), vehicle: methylcellulose (MC)) 0 of 6; (dose: 62.0 mg/kg/injection, schedule: Q01DX015 (ip), vehicle: methylcellulose (MC)) 0 of 6; (dose: 125.0 mg/kg/injection, schedule: Q01DX015 (ip), vehicle: methylcellulose (MC)) 0 of 6; (dose: 250.0 mg/kg/injection, schedule: Q01DX015 (ip), vehicle: methylcellulose (MC)) 0 of 6; (dose: 500.0 mg/kg/injection, schedule: Q01DX015 (ip), vehicle: methylcellulose (MC)) 0 of 6. In the case of `CN(C)C(=S)SSSC(=S)N(C)C`, the survivor count is 3 of 3 under setting [2] and 2 of 3 under setting [3].

`CC(=O)OC1CCCCC1NC(=O)N(CCCl)N=O` (stereo not drawn): the T/C (dose: 15.0 mg/kg/injection, schedule: Q01DX001 (ip), vehicle: carboxymethylcellulose (CMC)) was 129 % of control. For the same compound, under “dose: 135.0 mg/kg/injection, schedule: Q01DX001 (ip), vehicle: carboxymethylcellulose (CMC)”, the survivor count is given as 10 of 10.

In the case of `CC(C)=CCC/C(C)=C/CNc1ncnc2nc[nH]c12`, the survivor count (dose: 400.0 mg/kg/injection, schedule: Q04DX003 (ip), vehicle: acetone) is recorded as 0 of 6. `CCOP(=O)(Oc1ccc([N+](=O)[O-])cc1)c1cccc(Cl)c1` (stereo not drawn): the survivor count was 0 of 6 (dose: 20.0 mg/kg/injection, schedule: Q01DX001 (ip), vehicle: saline); 0 of 6 (dose: 40.0 mg/kg/injection, schedule: Q01DX001 (ip), vehicle: saline); 0 of 6 (dose: 80.0 mg/kg/injection, schedule: Q01DX001 (ip), vehicle: saline). As to `O=C(N/N=C/c1ccc(N(CCCl)CCCl)cc1)c1ccc(C(=O)N/N=C/c2ccc(N(CCCl)CCCl)cc2)cc1`, the survivor count is, setting by setting: under setting [4], 6 of 6; (dose: 400.0 mg/kg/injection, schedule: Q04DX003 (ip), vehicle: Klucel (hydroxypropylcellulose) (HPC)) 6 of 6. With `Clc1ccc(CSC2=NCCN2)cc1`, the survivor count runs as follows: (dose: 100.0 mg/kg/injection, schedule: Q04DX003 (ip), vehicle: saline) 2 of 6; (dose: 200.0 mg/kg/injection, schedule: Q04DX003 (ip), vehicle: saline) 0 of 6; (dose: 400.0 mg/kg/injection, schedule: Q04DX003 (ip), vehicle: saline) 0 of 6. For `Nc1cc(C(=O)Nc2cccc(C3=NCCCN3)c2)ccc1C(=O)Nc1cccc(C2=NCCCN2)c1`, where the note is “dose: 1.36 mg/kg/injection, schedule: Q01DX Z (ip), vehicle: water”, the survivor count is given as 0 of 6. `CCC(C)c1cc(CN(C)C)cc(C(C)CC)c1O` (stereo not drawn): the survivor count is, setting by setting: (dose: 100.0 mg/kg/injection, schedule: Q01DX009 (ip), vehicle: Klucel (hydroxypropylcellulose) (HPC)) 3 of 6; under setting [4], 0 of 6; under setting [1], 0 of 6. For the compound `OCc1ccc[n+](CCc2c[nH]c3ccccc23)c1`, the survivor count under setting [5] was 3 of 6. Take `c1cc2c(c(NC3=NCCCO3)c1)CCCC2`: the survivor count is 1 of 6 (dose: 100.0 mg/kg/injection, schedule: Q04DX003 (ip), vehicle: saline with Tween-80); 0 of 6 (dose: 200.0 mg/kg/injection, schedule: Q04DX003 (ip), vehicle: saline with Tween-80); 0 of 6 under setting [5]. Regarding `O=C1C=C(S(=O)(=O)c2ccccc2)C(=O)c2ccccc21`, the survivor count under setting [6] is listed as 0 of 6.

In the case of `N=C([Se])c1c(N)ncn1C1OC(CO)C(O)C1O` (stereo not drawn), the survivor count is, setting by setting: (dose: 100.0 mg/kg/injection, schedule: Q01DX005 (ip), vehicle: saline) 1 of 6; (dose: 200.0 mg/kg/injection, schedule: Q01DX005 (ip), vehicle: saline) 0 of 6. As to `CCN(CC)CCN1C(=O)C(C)C=C(C)C=C1C` (stereo not drawn), the survivor count is reported as 3 of 6 (dose: 150.0 mg/kg/injection, schedule: Q01DX001 (ip), vehicle: other) and 0 of 6 under setting [6].

On to `CCCC(=O)Nc1ccn(C2OC(COC(=O)CCC)C(OC(=O)CCC)C2OC(=O)CCC)c(=O)n1` (stereo not drawn), for which the T/C (dose: 600.0 mg/kg/injection, schedule: Q01DX001 (ip), vehicle: carboxymethylcellulose (CMC)) was 127 % of control.

With `FCCCC1CCCCN1` (stereo not drawn), the survivor count was 0 of 3 (dose: 100.0 mg/kg/injection, schedule: Q01DX009 (ip), vehicle: saline) and 0 of 3 (dose: 200.0 mg/kg/injection, schedule: Q01DX009 (ip), vehicle: saline). `O=[N+]([O-])c1ccccc1N=Nc1c(O)[nH]c2c(Cl)ccc(Cl)c12`: the survivor count (dose: 300.0 mg/kg/injection, schedule: Q01DX001 (ip), vehicle: saline) is 0 of 6. `CC1=Nc2ccccc2NC(C)(C)C1`: the survivor count (dose: 400.0 mg/kg/injection, schedule: Q04DX002 (ip), vehicle: saline) is given as 3 of 3. `Cn1ccoc1=NC1CCCCC1`: the survivor count under setting [5] was 5 of 6. Consider `CC(C)(O)C1C2OC(=O)C1C1(O)CC3OC34C(=O)OC2C14C` (stereo not drawn), for which the survivor count under setting [6] is on record as 0 of 6.
